Results as given in US20230364079A1, “COMPOUND AS BRAIN-PERMEABLE BTK OR HER2 INHIBITOR, PREPARATION METHOD THEREFOR, AND USE THEREOF” (CHENGDU HYPERWAY PHARMACEUTICALS CO., LTD., priority 2020, published 2023).

By UniProt entry, the sequences of proteins in these tests, tags left out.
UniProt Q06187, whole entry: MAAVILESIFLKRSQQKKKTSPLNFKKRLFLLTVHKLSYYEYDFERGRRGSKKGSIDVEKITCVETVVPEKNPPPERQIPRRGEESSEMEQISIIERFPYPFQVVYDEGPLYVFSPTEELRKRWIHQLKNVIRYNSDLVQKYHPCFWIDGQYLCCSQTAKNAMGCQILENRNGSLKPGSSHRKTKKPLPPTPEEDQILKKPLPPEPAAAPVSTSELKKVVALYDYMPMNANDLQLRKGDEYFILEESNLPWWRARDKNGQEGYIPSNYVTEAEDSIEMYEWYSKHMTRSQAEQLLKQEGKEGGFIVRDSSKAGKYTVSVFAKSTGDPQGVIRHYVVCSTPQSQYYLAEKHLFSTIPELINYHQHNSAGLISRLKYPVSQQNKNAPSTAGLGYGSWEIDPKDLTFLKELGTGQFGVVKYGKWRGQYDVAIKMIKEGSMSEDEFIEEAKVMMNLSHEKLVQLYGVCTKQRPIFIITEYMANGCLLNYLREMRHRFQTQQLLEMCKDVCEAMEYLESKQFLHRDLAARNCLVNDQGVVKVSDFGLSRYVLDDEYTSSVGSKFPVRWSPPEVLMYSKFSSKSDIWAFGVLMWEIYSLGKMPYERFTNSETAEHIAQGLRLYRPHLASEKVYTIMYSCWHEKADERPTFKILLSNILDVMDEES

Experiments:
BTK wild-type kinase = BTK wild-type kinase (Homo sapiens (Human), UniProt Q06187); assay: BTK kinase activity inhibition test in vitro (Caliper EZ Reader); type: biochemical; details: read-out: BTK IC50
[1] = Pharmacokinetic test, oral, SD rats; details: oral 10 mg/kg, plasma
[2] = Blood-brain barrier permeability test, SD rats (plasma, cerebrospinal fluid, brain tissue); details: oral single dose 10 mg/kg

IC50 (BTK wild-type kinase): 20 to 100 nM
Cl [1]: 21.03 mL/min/kg
Brain tissue/plasma ([2]; 1 h): 39%
Cerebrospinal fluid/plasma ([2]; 1 h): 3.6%
Drug concentration in brain tissue ([2]; 1 h): 643 ng/g
Drug concentration in cerebrospinal fluid ([2]; 1 h): 59.7 ng/mL
Plasma drug concentration ([2]; 1 h): 1652 ng/mL
Brain tissue/plasma ([2]; 4 h): 53%
Cerebrospinal fluid/plasma ([2]; 4 h): 4.4%
Drug concentration in brain tissue ([2]; 4 h): 910 ng/g
Drug concentration in cerebrospinal fluid ([2]; 4 h): 74.3 ng/mL
Plasma drug concentration ([2]; 4 h): 1706 ng/mL
Structure (SMILES): Nc1nccn2c(C34CCC(CO)(CC3)OC4)nc(-c3ccc(C(F)(F)c4ccccc4F)cc3)c12

Structures were worked out from names or drawings and are uncertain.
